According to PMC3864812:
Results are given in words; binding and its absence hold for the method and conditions named. In cells and extracts the contact can be indirect. These calls come from enrichment with a bait or labelling near it, and not all partners need be listed.

Biological target: IE2-p86 protein with a carboxyl-terminal SG-tag (human cytomegalovirus (Towne))
Assay: affinity purification with mass spectrometry; tandem affinity purification of IE2-p86SG (rabbit-IgG agarose, TEV protease elution, streptavidin resin, D-biotin elution) from HFF infected with Towne IE2SG at MOI 2, harvested 8, 24 and 48 h p.i.; lysis buffer 50 mM Tris-HCl pH 7.5, 125 mM NaCl, 5% glycerol, 0.5% NP-40, with Benzonase; nanoLC-MS/MS; control Towne-wt

B1: Heterogeneous nuclear ribonucleoprotein M (HNRNPM) (protein, UniProt P52272 1-730)
chain: MAAGVEAAAEVAATEIKMEEESGAPGVPSGNGAPGPKGEGERPAQNEKRKEKNIKRGGNRFEPYANPTKRYRAFITNIPFDVKWQSLKDLVKEKVGEVTYVELLMDAEGKSRGCAVVEFKMEESMKKAAEVLNKHSLSGRPLKVKEDPDGEHARRAMQKVMATTGGMGMGPGGPGMITIPPSILNNPNIPNEIIHALQAGRLGSTVFVANLDYKVGWKKLKEVFSMAGVVVRADILEDKDGKSRGIGTVTFEQSIEAVQAISMFNGQLLFDRPMHVKMDERALPKGDFFPPERPQQLPHGLGGIGMGLGPGGQPIDANHLNKGIGMGNIGPAGMGMEGIGFGINKMGGMEGPFGGGMENMGRFGSGMNMGRINEILSNALKRGEIIAKQGGGGGGGSVPGIERMGPGIDRLGGAGMERMGAGLGHGMDRVGSEIERMGLVMDRMGSVERMGSGIERMGPLGLDHMASSIERMGQTMERIGSGVERMGAGMGFGLERMAAPIDRVGQTIERMGSGVERMGPAIERMGLSMERMVPAGMGAGLERMGPVMDRMATGLERMGANNLERMGLERMGANSLERMGLERMGANSLERMGPAMGPALGAGIERMGLAMGGGGGASFDRAIEMERGNFGGSFAGSFGGAGGHAPGVARKACQIFVRNLPFDFTWKMLKDKFNECGHVLYADIKMENGKSKGCGVVKFESPEVAERACRMMNGMKLSGREIDVRIDRNA
In the case of B1, the binding is reported as “binds”.

B2: Purine-rich element binding protein A (PURA) (protein, UniProt Q00577 1-322)
chain: MADRDSGSEQGGAALGSGGSLGHPGSGSGSGGGGGGGGGGGGSGGGGGGAPGGLQHETQELASKRVDIQNKRFYLDVKQNAKGRFLKIAEVGAGGNKSRLTLSMSVAVEFRDYLGDFIEHYAQLGPSQPPDLAQAQDEPRRALKSEFLVRENRKYYMDLKENQRGRFLRIRQTVNRGPGLGSTQGQTIALPAQGLIEFRDALAKLIDDYGVEEEPAELPEGTSLTVDNKRFFFDVGSNKYGVFMRVSEVKPTYRNSITVPYKVWAKFGHTFCKYSEEMKKIQEKQREKRAACEQLHQQQQQQQEETAAATLLLQGEEEGEED
With B2 the binding was “binds”.
